{"source": "the supplement of paper PMC8728848", "assay_in_all_cases": "glycan array binding signal (z-score within array); higher = stronger binding", "conditions_in_all_cases": "glycan notation: IUPAC condensed, linker removed", "key": {"Neu5Ac(a2-8)Neu5Ac": {"target": "Neu5Ac(a2-8)Neu5Ac", "in_short": "(§1)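 Glycan array binding is given as a within-array Z-score, which can be read as non-binding when negative. The arrays, 3228 of them, came from the Consortium for Functional Glycomics database and were retained only where the protein sequence was available. Z-scores were averaged across arrays of the same protein sequence at different concentrations or buffers and across linkers.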"}, "[1]": {"target": "Neu5Ac(a2-8)Neu5Ac(a2-3)Gal(b1-3)GalNAc(b1-4)[Neu5Ac(a2-3)]Gal(b1-4)Glc", "in_short": "as §1"}, "[2]": {"target": "Neu5Ac(a2-8)Neu5Ac(a2-3)Gal(b1-3)GalNAc(b1-4)[Neu5Ac(a2-8)Neu5Ac(a2-3)]Gal(b1-4)Glc", "in_short": "as §1"}, "[3]": {"target": "Neu5Ac(a2-8)Neu5Ac(a2-3)Gal(b1-4)Glc", "in_short": "as §1"}, "[4]": {"target": "Neu5Ac(a2-8)Neu5Ac(a2-3)Gal(b1-4)GlcNAc", "in_short": "as §1"}, "[5]": {"target": "Neu5Ac(a2-8)Neu5Ac(a2-3)[Gal(b1-3)GalNAc(b1-4)]Gal(b1-4)Glc", "in_short": "as §1"}, "[6]": {"target": "Neu5Ac(a2-8)Neu5Ac(a2-3)[GalNAc(b1-4)]Gal(b1-4)Glc", "in_short": "as §1"}, "[7]": {"target": "Neu5Ac(a2-8)Neu5Ac(a2-8)Neu5Ac", "in_short": "as §1"}, "[8]": {"target": "Neu5Ac(a2-8)Neu5Ac(a2-8)Neu5Ac(a2-3)Gal(b1-4)Glc", "in_short": "as §1"}, "[9]": {"target": "Neu5Ac(a2-8)Neu5Ac(a2-8)Neu5Ac(a2-3)[Gal(b1-3)GalNAc(b1-4)]Gal(b1-4)Glc", "in_short": "as §1"}, "[10]": {"target": "Neu5Ac(a2-8)Neu5Ac(a2-8)Neu5Ac(a2-3)[GalNAc(b1-4)]Gal(b1-4)Glc", "in_short": "as §1"}, "[11]": {"target": "Neu5Ac(a2-8)Neu5Ac(a2-8)Neu5Ac(a2-8)Neu5Ac(a2-3)[GalNAc(b1-4)]Gal(b1-4)Glc", "in_short": "as §1"}, "[12]": {"target": "Neu5Ac(a2-8)Neu5Gc(a2-3)Gal(b1-4)GlcNAc", "in_short": "as §1"}, "[13]": {"target": "Neu5Ac(b2-6)Gal(b1-4)GlcNAc", "in_short": "as §1"}, "Neu5Ac(b2-6)GalNAc": {"target": "Neu5Ac(b2-6)GalNAc", "in_short": "as §1"}, "[14]": {"target": "Neu5Ac9Ac(a2-3)Gal(b1-3)GlcNAc", "in_short": "as §1"}, "[15]": {"target": "Neu5Ac9Ac(a2-3)Gal(b1-4)GlcNAc", "in_short": "as §1"}, "[16]": {"target": "Neu5Ac9Ac(a2-6)Gal(b1-4)GlcNAc", "in_short": "as §1"}, "[17]": {"target": "Neu5Gc(a2-3)Gal(b1-3)GlcNAc", "in_short": "as §1"}, "[18]": {"target": "Neu5Gc(a2-3)Gal(b1-3)[Fuc(a1-4)]GlcNAc", "in_short": "as §1"}, "Neu5Gc(a2-3)Gal(b1-4)Glc": {"target": "Neu5Gc(a2-3)Gal(b1-4)Glc", "in_short": "as §1"}, "[19]": {"target": "Neu5Gc(a2-3)Gal(b1-4)GlcNAc", "in_short": "as §1"}, "[20]": {"target": "Neu5Gc(a2-3)Gal(b1-4)GlcNAc(b1-3)Gal(b1-4)GlcNAc(b1-2)Man(a1-3)[Neu5Gc(a2-3)Gal(b1-4)GlcNAc(b1-3)Gal(b1-4)GlcNAc(b1-2)Man(a1-6)]Man(b1-4)GlcNAc(b1-4)GlcNAc", "in_short": "as §1"}, "[21]": {"target": "Neu5Gc(a2-3)Gal(b1-4)[Fuc(a1-3)]GlcNAc", "in_short": "as §1"}, "[22]": {"target": "Neu5Gc(a2-6)Gal(b1-4)GlcNAc", "in_short": "as §1"}, "Neu5Gc(a2-6)GalNAc": {"target": "Neu5Gc(a2-6)GalNAc", "in_short": "as §1"}, "[23]": {"target": "Neu5Gc(a2-8)Neu5Ac(a2-3)Gal(b1-4)GlcNAc", "in_short": "as §1"}, "[24]": {"target": "Neu5Gc(a2-8)Neu5Gc(a2-3)Gal(b1-4)GlcNAc", "in_short": "as §1"}, "[25]": {"target": "Neu5Gc(a2-8)Neu5Gc(a2-3)Gal(b1-4)GlcNAc(b1-3)Gal(b1-4)GlcNAc", "in_short": "as §1"}, "[26]": {"target": "Neu5Gc(a2-8)Neu5Gc(a2-6)Gal(b1-4)GlcNAc", "in_short": "as §1"}, "[27]": {"target": "Neu5Gc(b2-6)Gal(b1-4)GlcNAc", "in_short": "as §1"}}, "note": "The list shows a part of the results."}
{"binder": "PX14343G-pdi-535-24-535 (Parabacteroides distasonis) (protein) LDTVPKDQLAPSTTWQTEADAKGFIVGCYKDLLDGNTLLYLDCGSDIGYNNFPWEGFRPWGDGSLSSSNPGQILYDYKSIRKANTFLENVDKVTFSSDAVKANYVAQAKAIRAYKYFLMNWWYGGVPIISSYSSADEAKVERNTEQEVRDYIAKDLDEALAGIAEAPEARGYIAKGAVLAIKMREALYYGDWQKAKDAAKAIIDLKQYELDPDYTNLFKVSGVDSKEIILADQNIETLDGLGTIGQMYNNVDQGWSSIVPTQNLVDMYEMSDGLTKEESKTYDAKHPFANRDPRMAMTILYPGRDWRGDVLNTLDEKLQDGTVNKNFPTYTDNASKSALTWAKYLDPMDQYGDVWSSGACPIVFRYAEVLLTYAEAANELSGPSDEIYGYLNQIRQRVGMGEVDKAKYGTKDKLRELIRRERTVELAGEGLRRADIVRWQEDGKMLAEKVMNGDLLRVTGTINYGESEPTKRAEITGTAVIETRQFSSRNRYLPIPQTSMDKNPNLKQNPGY", "values": [{"measurement": "glycan array binding signal (z-score)", "setting": "Neu5Ac(a2-8)Neu5Ac", "value": 0.537}, {"measurement": "glycan array binding signal (z-score)", "setting": "[1]", "value": -0.712}, {"measurement": "glycan array binding signal (z-score)", "setting": "[2]", "value": 0.598}, {"measurement": "glycan array binding signal (z-score)", "setting": "[3]", "value": -0.191}, {"measurement": "glycan array binding signal (z-score)", "setting": "[4]", "value": -0.855}, {"measurement": "glycan array binding signal (z-score)", "setting": "[5]", "value": -0.889}, {"measurement": "glycan array binding signal (z-score)", "setting": "[6]", "value": -0.521}, {"measurement": "glycan array binding signal (z-score)", "setting": "[7]", "value": -0.443}, {"measurement": "glycan array binding signal (z-score)", "setting": "[8]", "value": -0.447}, {"measurement": "glycan array binding signal (z-score)", "setting": "[9]", "value": 0.2}, {"measurement": "glycan array binding signal (z-score)", "setting": "[10]", "value": -1.06}, {"measurement": "glycan array binding signal (z-score)", "setting": "[11]", "value": -0.61}, {"measurement": "glycan array binding signal (z-score)", "setting": "[12]", "value": 16.3}, {"measurement": "glycan array binding signal (z-score)", "setting": "[13]", "value": 0.883}, {"measurement": "glycan array binding signal (z-score)", "setting": "Neu5Ac(b2-6)GalNAc", "value": -0.479}, {"measurement": "glycan array binding signal (z-score)", "setting": "[14]", "value": 0.039}, {"measurement": "glycan array binding signal (z-score)", "setting": "[15]", "value": -0.968}, {"measurement": "glycan array binding signal (z-score)", "setting": "[16]", "value": 0.187}, {"measurement": "glycan array binding signal (z-score)", "setting": "[17]", "value": 0.395}, {"measurement": "glycan array binding signal (z-score)", "setting": "[18]", "value": 0.295}, {"measurement": "glycan array binding signal (z-score)", "setting": "Neu5Gc(a2-3)Gal(b1-4)Glc", "value": -0.053}, {"measurement": "glycan array binding signal (z-score)", "setting": "[19]", "value": -0.132}, {"measurement": "glycan array binding signal (z-score)", "setting": "[20]", "value": -0.198}, {"measurement": "glycan array binding signal (z-score)", "setting": "[21]", "value": -0.269}, {"measurement": "glycan array binding signal (z-score)", "setting": "[22]", "value": -0.687}, {"measurement": "glycan array binding signal (z-score)", "setting": "Neu5Gc(a2-6)GalNAc", "value": 0.744}, {"measurement": "glycan array binding signal (z-score)", "setting": "[23]", "value": 0.119}, {"measurement": "glycan array binding signal (z-score)", "setting": "[24]", "value": -0.699}, {"measurement": "glycan array binding signal (z-score)", "setting": "[25]", "value": -0.772}, {"measurement": "glycan array binding signal (z-score)", "setting": "[26]", "value": 0.864}, {"measurement": "glycan array binding signal (z-score)", "setting": "[27]", "value": 0.374}]}
